HELM strings list residues between dots; [ac] is acetyl, [am] amide, other brackets name non-standard units. One purity is given for all peptides; the source may state it once.
Assay: general procedure: Fmoc solid-phase peptide synthesis; Rink-amide-aminomethyl polystyrene (AM-PS) resin; HBTU/HOBt, DIEA
Conditions: whole synthesis

Row | Substance | final HPLC purity | isolated yield
1 | PEPTIDE1{[FITC].[Ahx].[Dab(T)].R.[Dab(T)].R.[Dab(T)].R.[Dab(T)].R.[Dab(T)].R.[Dab(T)].R.[am]}$$$$V2.0 | ≥ 95% | 60%
2 | PEPTIDE1{[ac].[Dab(T)].R.[Dab(T)].R.[Dab(T)].R.[Dab(T)].R.[Dab(T)].R.[Dab(T)].R.[am]}$$$$V2.0 | ≥ 95% | 71%
3 | PEPTIDE1{[ac].[Dap(T)].R.[Dap(T)].R.[Dap(T)].R.[Dap(T)].R.[Dap(T)].R.[Dap(T)].R.[am]}$$$$V2.0 | ≥ 95% | 69%
4 | PEPTIDE1{[ac].[Lys(T)].D.[Lys(T)].D.[Lys(T)].D.[Lys(T)].D.[Lys(T)].D.[Lys(T)].D.[am]}$$$$V2.0 | ≥ 95% | 56%
5 | PEPTIDE1{[ac].[Lys(T)].E.[Lys(T)].E.[Lys(T)].E.[Lys(T)].E.[Lys(T)].E.[Lys(T)].E.[am]}$$$$V2.0 | ≥ 95% | 61%
6 | PEPTIDE1{[ac].[Lys(T)].H.[Lys(T)].H.[Lys(T)].H.[Lys(T)].H.[Lys(T)].H.[Lys(T)].H.[am]}$$$$V2.0 | ≥ 95% | 68%
7 | PEPTIDE1{[ac].[Lys(T)].K.[Lys(T)].K.[Lys(T)].K.[Lys(T)].K.[Lys(T)].K.[Lys(T)].K.[am]}$$$$V2.0 | ≥ 95% | 72%
8 | PEPTIDE1{[ac].[Lys(T)].R.[Lys(T)].R.[Lys(T)].R.[Lys(T)].R.[Lys(T)].R.[Lys(T)].R.[am]}$$$$V2.0 | ≥ 95% | 79%
9 | PEPTIDE1{[ac].[Orn(T)].R.[Orn(T)].R.[Orn(T)].R.[Orn(T)].R.[Orn(T)].R.[Orn(T)].R.[am]}$$$$V2.0 | ≥ 95% | 77%

From PMC9369335 (International Journal of Molecular Sciences, 2022)
